In US8871900B2, “Fibroblast growth factor (FGF) analogs and uses thereof” (University of Rochester, priority 2008, dated 2014):
These are yes or no findings as the source states them, for the method shown. Some results given as binding are weak or reduced against the parent protein; the word gives no strength.

Amino acid sequences for entries named in this document (tags omitted). Residues count along the entry.
UniProt P11362, residues 22-376: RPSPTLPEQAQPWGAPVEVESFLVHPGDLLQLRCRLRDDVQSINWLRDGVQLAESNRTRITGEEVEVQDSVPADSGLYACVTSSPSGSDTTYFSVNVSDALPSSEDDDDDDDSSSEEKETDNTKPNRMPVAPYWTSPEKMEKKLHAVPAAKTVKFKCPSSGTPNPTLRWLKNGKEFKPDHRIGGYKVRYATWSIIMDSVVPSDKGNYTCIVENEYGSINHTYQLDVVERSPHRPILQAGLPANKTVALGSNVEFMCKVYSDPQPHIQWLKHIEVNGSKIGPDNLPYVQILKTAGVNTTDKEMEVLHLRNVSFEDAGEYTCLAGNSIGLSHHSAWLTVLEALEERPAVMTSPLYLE

Biological target: human FGFR1 (Homo sapiens, UniProt P11362)
Experiment: Biacore (SPR)

CYRSRKYSSWYVALKRC [FGF-P] was tested, and the binding was “binds”.
